US20090085008A1, “Cellulose compound composition and cellulose compound film” (FUJIFILM Corporation, priority 2005, published 2009)

Assay: Re and Rth retardation values of stretched cellulose acetate film containing the additive
Type: physicochemical
Conditions: for Re / Rth: film 92 μm, orientation ratio 20% at 130° C., wavelength 633 nm
[1] = additive 2 mass parts per 100 mass parts cellulose acetate
[2] = additive 5 mass parts per 100 mass parts cellulose acetate

## COc1ccc(Nc2nc(Nc3cccc(C)c3)nc(Nc3cccc(C)c3)n2)cc1 [Compound 1 for comparison]
[1]
  Re/Rth: 0.17
  Re: 20 nm
  Rth: 115 nm
[2]
  Re/Rth: 0.21
  Re: 38 nm
  Rth: 180 nm
